Laboratory results as given in paper PMC8744257.
No constants are given. Whether binding was seen depends on the method and setting. In cells and extracts the contact can be indirect. Here binding means that the protein was enriched with, or labelled near, the bait; the list need not be complete. Where a sequence is shown, tags or fusion partners need not be part of it.

T1: endogenously 3xHA-tagged CLUH protein (mESCs knock-in) (mouse (endogenous in E14 mESCs)) (UniProt Q5SW19)
T1 sequence: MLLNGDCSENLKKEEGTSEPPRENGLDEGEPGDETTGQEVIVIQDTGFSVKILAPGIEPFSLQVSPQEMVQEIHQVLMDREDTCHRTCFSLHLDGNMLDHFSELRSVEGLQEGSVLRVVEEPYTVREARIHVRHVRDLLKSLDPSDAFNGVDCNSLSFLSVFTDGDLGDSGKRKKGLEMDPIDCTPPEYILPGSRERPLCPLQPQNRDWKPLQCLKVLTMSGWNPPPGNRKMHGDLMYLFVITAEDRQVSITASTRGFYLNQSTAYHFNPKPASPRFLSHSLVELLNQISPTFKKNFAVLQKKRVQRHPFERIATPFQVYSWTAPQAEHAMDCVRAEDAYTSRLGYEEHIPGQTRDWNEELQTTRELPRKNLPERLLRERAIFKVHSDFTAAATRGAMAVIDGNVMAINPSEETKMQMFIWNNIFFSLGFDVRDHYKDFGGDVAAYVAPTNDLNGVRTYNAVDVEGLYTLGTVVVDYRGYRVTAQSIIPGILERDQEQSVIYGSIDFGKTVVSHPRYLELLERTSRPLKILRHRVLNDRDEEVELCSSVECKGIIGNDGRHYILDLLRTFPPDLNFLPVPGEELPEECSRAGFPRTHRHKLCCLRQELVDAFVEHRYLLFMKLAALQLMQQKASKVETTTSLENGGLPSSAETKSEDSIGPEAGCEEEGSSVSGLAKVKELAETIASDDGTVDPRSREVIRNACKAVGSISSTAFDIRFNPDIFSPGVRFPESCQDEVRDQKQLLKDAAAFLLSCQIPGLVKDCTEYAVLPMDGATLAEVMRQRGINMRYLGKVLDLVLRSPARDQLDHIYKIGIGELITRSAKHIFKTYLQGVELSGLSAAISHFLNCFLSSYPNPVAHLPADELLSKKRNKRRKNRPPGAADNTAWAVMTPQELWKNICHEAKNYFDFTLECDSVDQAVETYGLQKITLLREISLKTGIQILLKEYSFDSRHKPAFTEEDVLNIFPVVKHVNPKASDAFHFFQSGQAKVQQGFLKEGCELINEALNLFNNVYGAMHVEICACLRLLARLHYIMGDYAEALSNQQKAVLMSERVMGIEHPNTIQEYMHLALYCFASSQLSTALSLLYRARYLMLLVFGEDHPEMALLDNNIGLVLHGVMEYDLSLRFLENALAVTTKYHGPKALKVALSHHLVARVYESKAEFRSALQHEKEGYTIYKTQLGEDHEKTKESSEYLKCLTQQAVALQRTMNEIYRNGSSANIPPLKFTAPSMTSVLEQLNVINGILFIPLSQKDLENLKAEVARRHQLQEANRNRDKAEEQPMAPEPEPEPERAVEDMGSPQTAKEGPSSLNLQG


Target: T1, endogenously 3xHA-tagged CLUH protein (mESCs knock-in) (mouse (endogenous in E14 mESCs))
Assay: affinity purification with mass spectrometry; anti-HA-coupled beads on extracts of mESCs with endogenously 3xHA-tagged CLUH (clone G12); wild-type cells as IP mock; LC-MS/MS, three replicates

Row | binding | Binder
1 | binds | KNSTRN (endogenous, mESCs) (protein, UniProt Q9D9Z1 1-312) MAAPEAEAQETAFRTTGPPTDSEPRPFPPSSRKFPFESAAADSNEDWAVAAEHYLKGSGENGGWEQPAPGVQPSHPATMASAKTVCDAQPHSMPSCGLPADTQTRATSKLPVKSKEADLLRHLHPGGPEPDVTKVTKSRRENGQVKAAETASRRNLRNSYKPFNKQKPEEELKDKNELLEAVNKQLHQKLTETQGELKDLTQKVELLEKFQDNCLALLESKGLNPGQETLASKQEPTTDHTDSMLLLETLKDELKVFNETAKKQMEELQALKVKLKLKEEESVQFLEQQTLCKDEASDFTIILEEMEQLLEM
2 | binds | SPAG5 (endogenous, mESCs) (protein, UniProt Q7TME2 1-1165) MWRVKTLNLGLSPSPQKGKPAMSTPLRELKLQPEALADSGKGPSMISALTPYLCRLELKERCNNSSPVDFINTENNFLSEQFSHPSTHIEACQRESDPTPESNSLFHTLEEAIETVDDFVVDPRDDSIVESMVLLPFSLGQQQDLMLQAHLDTTAERTKSSLNESLGLEDLVGKEVAPCVEDSLTEIVAIRPEQPTFQDPPLGPSDTEDAPVDLVPSENVLNFSLARLSPSAVLAQDFSVDHVDPGEETVENRVLQEMETSFPTFPEEAELGDQAPAANAEAVSPLYLTSSLVEMGPREAPGPTVEDASRIPGLESETWMSPLAWLEKGVNTSVMLQNLRQSLSFSSVLQDAAVGNTPLATCSVGTSFTPPAPLEVGTKDSTSETERLLLGCRPPDLATLSRHDLEENLLNSLVLLEVLSHQLQAWKSQLTVPHREARDSSTQTDSSPCGVTKTPKHLQDSKEIRQALLQARNVMQSWGLVSGDLLSLLHLSLTHVQEGRVTVSQESQRSKTLVSSCSRVLKKLKAKLQSLKTECEEARHSKEMALKGKAAAEAVLEAFRAHASQRISQLEQGLTSMQEFRGLLQEAQTQLIGLHTEQKELAQQTVSLSSALQQDWTSVQLNYGIWAALLSWSRELTKKLTAKSRQALQERDAAIEEKKQVVKEVEQVSAHLEDCKGQIEQLKLENSRLTADLSAQLQILTSTESQLKEVRSQHSRCVQDLAVKDELLCQLTQSNKEQATQWQKEEMELKHIQAELLQQQAVLAKEVQDLRETVEFIDEESQVAHRELGQIESQLKVTLELLRERSLQCETLRDTVDSLRAELASTEAKHEKQALEKTHQHSQELRLLAEQLQSLTLFLQAKLKENKAESEIILPSTGSAPAQEHPLSNDSSISEQTPTAAVDEVPEPAPVPLLGSVKSAFTRVASMASFQPTETPDLEKSLAEMSTVLQELKSLCSLLQESKEEATGVLQREICELHSRLQAQEEEHQEALKAKEADMEKLNQALCLLRKNEKELLEVIQKQNEKILGQIDKSGQLINLREEVTQLTQSLRRAETETKVLQEALEGQLDPSCQLMATNWIQEKVFLSQEVSKLRVMFLEMKTEKEQLMDKYLSHRHILEENLRRSDTELKKLDDTIQHVYETLLSIPETMKSCKELQGLLEFLS
